Measurements published in publication PMC8327742 (Haematologica, 2021).
Read-outs that look alike come from different tables or passages of the source.

Key:
EBF1-PDGFRB [1] = assay: viability assay of transformed Ba/F3 cells; assay type: cell-based, Homo sapiens; conditions: Ba/F3 cells with wild-type fusion; cell viability read-out
EBF1-PDGFRB [2] = conditions: Ba/F3 cells with mutant fusion; cell viability read-out; gatekeeper; stated gain

IC50 (EBF1-PDGFRB [1]): 15.74 nM
Compound: Cc1ccc(NC(=O)c2ccc(CN3CCN(C)CC3)cc2)cc1Nc1nccc(-c2cccnc2)n1 [imatinib]
IC50 (EBF1-PDGFRB [2]): 602.5 nM
